Results reported in PMC4375889.
Results are given in words; binding and its absence hold for the method and conditions named. Some entries that bind do so weakly or less than the wild type.

Sequences of proteins named here, by UniProt entry; tags and fusion partners are left off. Residues count along the entry.
UniProt P49790, residues 874-1475: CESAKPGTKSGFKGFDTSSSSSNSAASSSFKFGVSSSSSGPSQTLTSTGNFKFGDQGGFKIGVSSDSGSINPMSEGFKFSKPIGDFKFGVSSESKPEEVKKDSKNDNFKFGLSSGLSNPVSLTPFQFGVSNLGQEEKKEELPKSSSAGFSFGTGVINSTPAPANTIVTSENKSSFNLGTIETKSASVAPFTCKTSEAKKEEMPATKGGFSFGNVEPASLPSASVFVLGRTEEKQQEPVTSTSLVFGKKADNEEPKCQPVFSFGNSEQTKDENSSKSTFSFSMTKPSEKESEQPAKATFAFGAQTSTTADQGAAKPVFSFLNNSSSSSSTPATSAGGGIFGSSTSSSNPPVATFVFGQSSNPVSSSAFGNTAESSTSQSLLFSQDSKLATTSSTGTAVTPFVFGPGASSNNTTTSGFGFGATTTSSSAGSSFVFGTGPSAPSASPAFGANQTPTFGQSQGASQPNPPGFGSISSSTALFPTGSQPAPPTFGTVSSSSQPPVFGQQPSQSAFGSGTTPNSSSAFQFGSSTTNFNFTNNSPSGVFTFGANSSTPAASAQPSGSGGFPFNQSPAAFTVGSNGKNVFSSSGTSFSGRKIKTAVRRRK
UniProt Q92973: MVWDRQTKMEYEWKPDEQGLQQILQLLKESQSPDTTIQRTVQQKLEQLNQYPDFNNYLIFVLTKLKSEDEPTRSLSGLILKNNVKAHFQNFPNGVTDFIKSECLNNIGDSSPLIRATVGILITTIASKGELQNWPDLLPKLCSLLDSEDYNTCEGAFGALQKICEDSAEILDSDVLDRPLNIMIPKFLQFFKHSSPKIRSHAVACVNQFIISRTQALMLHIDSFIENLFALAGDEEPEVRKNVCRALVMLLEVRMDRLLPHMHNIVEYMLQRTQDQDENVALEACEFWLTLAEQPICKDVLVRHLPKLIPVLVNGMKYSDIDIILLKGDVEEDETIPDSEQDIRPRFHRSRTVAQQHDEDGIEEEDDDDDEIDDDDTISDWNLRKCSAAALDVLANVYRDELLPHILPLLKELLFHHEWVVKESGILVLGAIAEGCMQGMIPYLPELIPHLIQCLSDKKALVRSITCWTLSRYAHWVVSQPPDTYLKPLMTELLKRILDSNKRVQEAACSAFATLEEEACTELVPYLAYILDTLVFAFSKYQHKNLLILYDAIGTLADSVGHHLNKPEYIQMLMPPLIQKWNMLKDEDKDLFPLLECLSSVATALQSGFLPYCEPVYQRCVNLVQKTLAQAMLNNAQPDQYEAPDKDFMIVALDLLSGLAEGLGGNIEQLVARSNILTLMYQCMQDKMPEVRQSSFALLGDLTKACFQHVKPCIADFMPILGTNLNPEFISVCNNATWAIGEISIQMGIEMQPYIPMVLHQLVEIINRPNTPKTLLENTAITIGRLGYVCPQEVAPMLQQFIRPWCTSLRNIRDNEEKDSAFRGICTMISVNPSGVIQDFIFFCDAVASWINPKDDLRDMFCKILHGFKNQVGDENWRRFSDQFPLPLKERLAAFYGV

Biological target: Nup153FG (the FG domain of Nup153 comprising amino acids 874-1475) (UniProt P49790)
Assay: fluorescence fluctuation spectroscopy (photon counting histograms); all in solution in 500 µl PBS with 2 mM DTT, room temperature; 50 nM impβ-YFP or 100 nM TRN1-GFP, 0.5 µM Nup153FG, with or without 2 µM RanQ69L•GTP; read at once or after 30 min; both purified

binding: binds
Substance: transportin-1 with a GFP tag (TRN1-GFP) (from UniProt Q92973 1-898)
